According to patent US20240067683A1, “USE OF MCM8-CGAS-STING-IFN-I SIGNAL PATHWAY AS DISEASE TARGET” (Guangzhou Women and Children's Medical Center, priority 2020, published 2024):
Results are given in words; binding and its absence hold for the method and conditions named. In cells and extracts the contact can be indirect. Some entries that bind do so weakly or less than the wild type.

Chains of the proteins cited; added tags and fusions are not shown. Lines headed by an entry give the natural chain unless they say otherwise; changes in a name come on top.
UniProt P19474: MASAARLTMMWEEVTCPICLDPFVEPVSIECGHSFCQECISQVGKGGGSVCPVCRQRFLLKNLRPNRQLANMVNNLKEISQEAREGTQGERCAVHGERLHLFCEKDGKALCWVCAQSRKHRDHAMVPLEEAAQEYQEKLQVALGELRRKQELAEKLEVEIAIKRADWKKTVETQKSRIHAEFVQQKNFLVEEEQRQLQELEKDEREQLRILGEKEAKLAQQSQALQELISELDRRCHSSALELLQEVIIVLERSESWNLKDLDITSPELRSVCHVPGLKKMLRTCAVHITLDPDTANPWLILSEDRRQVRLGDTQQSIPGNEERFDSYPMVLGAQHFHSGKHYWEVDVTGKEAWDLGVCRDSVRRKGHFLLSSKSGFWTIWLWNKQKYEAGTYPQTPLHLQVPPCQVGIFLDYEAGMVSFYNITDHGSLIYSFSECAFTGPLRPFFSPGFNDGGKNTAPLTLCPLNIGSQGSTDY
UniProt Q9UJA3: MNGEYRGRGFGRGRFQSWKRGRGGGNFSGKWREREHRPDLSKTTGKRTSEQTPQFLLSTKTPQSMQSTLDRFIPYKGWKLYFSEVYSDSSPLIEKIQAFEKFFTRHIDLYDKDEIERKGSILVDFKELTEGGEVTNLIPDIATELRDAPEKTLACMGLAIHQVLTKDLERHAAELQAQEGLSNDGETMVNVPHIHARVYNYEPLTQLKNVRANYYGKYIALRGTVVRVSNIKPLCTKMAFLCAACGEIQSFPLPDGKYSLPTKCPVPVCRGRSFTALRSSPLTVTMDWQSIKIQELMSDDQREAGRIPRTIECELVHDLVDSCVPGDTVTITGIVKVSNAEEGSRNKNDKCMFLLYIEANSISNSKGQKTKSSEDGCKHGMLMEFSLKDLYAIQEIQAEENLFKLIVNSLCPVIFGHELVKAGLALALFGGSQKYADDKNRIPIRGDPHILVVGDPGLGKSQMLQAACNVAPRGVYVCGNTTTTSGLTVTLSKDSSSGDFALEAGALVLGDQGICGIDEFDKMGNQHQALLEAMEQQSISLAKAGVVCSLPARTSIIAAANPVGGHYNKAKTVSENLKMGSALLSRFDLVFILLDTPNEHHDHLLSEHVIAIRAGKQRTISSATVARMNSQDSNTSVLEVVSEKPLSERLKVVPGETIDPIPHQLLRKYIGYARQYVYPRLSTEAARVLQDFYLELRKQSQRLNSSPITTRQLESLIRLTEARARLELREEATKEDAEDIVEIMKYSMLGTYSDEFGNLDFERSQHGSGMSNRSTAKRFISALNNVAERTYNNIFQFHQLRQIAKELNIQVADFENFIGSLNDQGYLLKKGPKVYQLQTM

Columns and labels:
Flag-TRIM21 (human) [1] = target: Flag-TRIM21 (human) (UniProt P19474); assay: co-immunoprecipitation from HeLa cells transfected with Flag-TRIM21 and HA-MCM8
Flag-TRIM21 (human) [2] = target: Flag-TRIM21 (human) (UniProt P19474); assay: co-immunoprecipitation in HeLa cells (FIG. 12 Panel d)

binding (Flag-TRIM21 (human) [1]): binds | binding (Flag-TRIM21 (human) [2]): binds
Substance: HA-MCM8 (from UniProt Q9UJA3 1-840)
